Data taken from PubChem BioAssay AID2417 (National Center for Advancing Translational Sciences (NCATS), 2010).
Screen size: about 140,000 compounds; about 4,300 (3.1%) were called active. The shares of active, inactive and inconclusive entries below differ from those in the screen.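 How the source made its calls: active means readout at or below -70, meaning at least 70% loss of cells showing the perinucleolar compartment, a nuclear body marking cancer cells; inconclusive means readout between -30 and a set limit; inactive means the rest.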

Assay: High Content Assay for Compounds that inhibit the Assembly of the Perinucleolar Compartment;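 further: plate controls were DMSO wells for no effect and camptothecin positive control wells for full effect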
Conditions: PC3M PTB-GFP, PNC prevalence imaging, 16 h; at 10 µM; hits give low values
Outline: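 Read-out is percentage of cells bearing a perinucleolar compartment, from automated 20x imaging of fixed, Hoechst-stained PC3M PTB-GFP cells. Cells were seeded 4 h, then exposed 16 h to compound (23 nl of library stock) in duplicate plates.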

| Compound | activity change (PNC), negative = inhibition |
| --- | --- |
| O=C(Nc1cccc(C(F)(F)F)c1)N(Cc1ccc(Cl)cc1)CC(O)C(F)(F)F (centres undefined) | inactive: 24.5% |
| C/C(=N\O)C(=O)NCC1CCNCC1 | inconclusive: -41.1% |
| Cn1cccc1C(=O)Nc1nccs1 | inconclusive: -55.9% |
| COc1ccc(-c2nn3c(COc4ccccc4)nnc3s2)cc1OC | inconclusive: -38.7% |
| COC(=O)c1ccc(NS(=O)(=O)c2ccc(OC)cc2)cc1 | inconclusive: -63.4% |
| COc1nccnc1NS(=O)(=O)c1ccc(NC(=S)NC(=O)c2ccccc2F)cc1 | inactive: -5.19% |
| COC(=O)c1nnn(-c2nonc2N)c1CSc1ccc(Cl)cc1 | inconclusive: -37.6% |
| CCC1Oc2ccccc2N(CC(=O)NCCCN2CCC(C)CC2)C1=O (centres undefined) | inconclusive: -33.9% |
| COc1cc2c(C(=O)N3CCN(c4ccccc4)CC3)c(C)oc2cc1Br | inconclusive: -46.9% |
| O=C(/C=C/c1ccccc1)N/C(=C\c1ccco1)C(=O)NCCO | inactive: 70.9% |
| COc1ccc(-n2c(C)cc(C(=O)Cn3nnc4ccccc4c3=O)c2C)cc1 | inconclusive: -51.6% |
| O=C(/C=C/c1ccc(-c2ccccc2[N+](=O)[O-])o1)c1ccc(Br)cc1 | inconclusive: -61.5% |
| CC(C)c1cc(N2CCN(C(=O)c3ccco3)CC2)n2c(nc3ccccc32)c1C#N | inconclusive: -31.3% |
| O=C(CNC(=O)c1ccc(-c2ccccc2)cc1)OCc1c(F)cccc1Cl | inconclusive: -32.8% |
| O=C(Nc1cccc2[nH]ncc12)c1ccc(F)cc1 | inactive: 0.276% |
| COC(=O)c1cc(C(=O)N(Cc2ccccc2)c2ccccn2)cc([N+](=O)[O-])c1 | inconclusive: -43.8% |
| CC(C)C(NC(=O)CC12CC3CC(CC(C3)C1)C2)C(=O)O (centres undefined) | inconclusive: -31.4% |
| CCOC(=O)N1CCN(C(=O)CN(C2CCCCC2)S(C)(=O)=O)CC1 | inconclusive: -34.3% |
| Cc1cc(-n2c(C)cc(C(=O)CN3C(=O)NC4(CCCC4)C3=O)c2C)no1 | active: -117% |
| O=C(CSc1nnc(-c2ccccn2)n1Cc1ccco1)c1ccccc1 | inconclusive: -30.9% |
| c1ccc(Cn2c(CSc3nnnn3-c3ccccc3)nc3ccccc32)cc1 | inconclusive: -68.6% |
| CCC(CC)C(=O)NCCc1ccc(OC)cc1 | inconclusive: -51.2% |

Three entries from above, ordered by heavy-atom count, rising:

| Compound | activity change (PNC), negative = inhibition |
| --- | --- |
| Cn1cccc1C(=O)Nc1nccs1 | inconclusive: -55.9% |
| O=C(/C=C/c1ccccc1)N/C(=C\c1ccco1)C(=O)NCCO | inactive: 70.9% |
| Cc1cc(-n2c(C)cc(C(=O)CN3C(=O)NC4(CCCC4)C3=O)c2C)no1 | active: -117% |

Carrying on:

| Compound | activity change (PNC), negative = inhibition |
| --- | --- |
| CSCC[C@H](NC(=O)C(C)(C)Oc1ccc(Cl)cc1)c1nc2ccccc2[nH]1 | inconclusive: -77.3% |
| CCCCn1nc2cc(C(=O)NCC34CC5CC(CC(C5)C3)C4)ccc2c1OCC | inconclusive: -34.1% |
| CCCCCCc1nc2c(=O)[nH]c3ccccc3c2o1 | inconclusive: -43.5% |
| Cc1cc(C)cc(N2C(=O)CC(N3CCOCC3)C2=O)c1 (centres undefined) | inconclusive: -59.1% |
| CC(=O)c1cccc(NC(=O)c2ccc(NS(C)(=O)=O)cc2)c1 | active: -119% |
| Cc1cc(NC(=O)C2CCN(S(=O)(=O)c3cnc[nH]3)CC2)ccc1Br | inactive: 23.3% |
| COc1cccc(N=CC2=C(O)CC(C)(C)CC2=O)c1 | active: -113% |
| CC(NC(=O)NC1CCCCC1)c1ccccc1 (centres undefined) | inconclusive: -62.7% |
| CCN(CC)CC(=O)Nc1c(C)cc(C(C)(C)C)cc1C | inconclusive: -32% |
| CCOC(=O)c1ccc(NC(=O)CCNS(=O)(=O)c2ccc3c(c2)oc(=O)n3C)cc1 | inactive: 9.53% |
| Cc1cccc(N/N=C(\C(N)=O)C2=NC(C)(C)Cc3ccccc32)c1 | inconclusive: -36% |
| CCOC(=O)c1ccc(N2C(=O)c3n[nH]c(C)c3C2c2ccc(OC)cc2OC)cc1 (centres undefined) | active: -119% |
| CCOC(=O)c1c(NC(=O)COC(=O)Cn2c(C(F)(F)F)nc3ccccc32)sc(C)c1C | inconclusive: -44.9% |
| CCOC(=O)c1sc(=S)sc1SCc1cccc(C(F)(F)F)c1 | inconclusive: -44% |
| C=CCn1c(SCC(=O)N2CC(=O)Nc3ccccc32)nc2scc(-c3cccs3)c2c1=O | inconclusive: -50.5% |
| O=C1CC(N2CCN(Cc3ccc4c(c3)OCO4)CC2)C(=O)N1CCc1ccccc1 (centres undefined) | inconclusive: -66.7% |
| Cc1cccc(N2CCN(C(=O)c3ccc(NC(=O)C4CCCO4)cc3)CC2C)c1 (centres undefined) | inactive: 13.5% |
| Cc1cc2nnn(-c3nnc(-c4ccccc4)c4ccccc34)c2cc1C | active: -109% |
| CCOC(=O)c1c(C)sc(Sc2ccc(Cl)cc2[N+](=O)[O-])c1OC | inconclusive: -38.4% |
| CC(C)(C)c1ccc2c(c1)OC(C(=O)N/N=C\c1ccccn1)CO2 (centres undefined) | inconclusive: -48% |
| O=C(N/N=C/c1cccnc1)/C(=C\c1cccs1)NC(=O)c1ccccc1 | inconclusive: -67% |
| O=C(O)c1ccnc(SCC(=O)c2ccccc2)c1 | inconclusive: -49.1% |
